Values quoted from earlier work in US20060018842A1, “Composition and method for delivery of phytochemicals” (priority 2004, published 2006).
Entries after “also recorded” stand apart in the source; their conditions may differ. For at least one compound, name, drawing or mass did not settle the structure.

test system: microorganisms named in the source; conditions: organisms against which activity was observed; General = general antimicrobial

| Structure (SMILES) | Activity |
| --- | --- |
| COC(=O)[C@H]1[C@@H](OC(=O)c2ccccc2)C[C@@H]2CC[C@H]1N2C [Cocaine, reference compound] | Gram-negative and -positive; also recorded: cocci |
| Cc1cc(O)c2c(=O)c3c(O)cc(O)c4c5c(O)cc(O)c6c(=O)c7c(O)cc(C)c8c1c2c(c34)c(c78)c65 [Hypericin] | General |
| O=C(O)c1cc(O)c2c(c1)C(=O)c1cccc(O)c1C2=O [Rhein] | S. aureus |
